Article PMC8015235
These are yes or no findings as the source states them, for the method shown. Binding seen in cells or lysates may run through a third protein. Here binding means that the protein was enriched with, or labelled near, the bait; the list need not be complete. Where a sequence is shown, tags or fusion partners need not be part of it.

Sequences of proteins named here, by UniProt entry; tags and fusion partners are left off.
UniProt Q02455: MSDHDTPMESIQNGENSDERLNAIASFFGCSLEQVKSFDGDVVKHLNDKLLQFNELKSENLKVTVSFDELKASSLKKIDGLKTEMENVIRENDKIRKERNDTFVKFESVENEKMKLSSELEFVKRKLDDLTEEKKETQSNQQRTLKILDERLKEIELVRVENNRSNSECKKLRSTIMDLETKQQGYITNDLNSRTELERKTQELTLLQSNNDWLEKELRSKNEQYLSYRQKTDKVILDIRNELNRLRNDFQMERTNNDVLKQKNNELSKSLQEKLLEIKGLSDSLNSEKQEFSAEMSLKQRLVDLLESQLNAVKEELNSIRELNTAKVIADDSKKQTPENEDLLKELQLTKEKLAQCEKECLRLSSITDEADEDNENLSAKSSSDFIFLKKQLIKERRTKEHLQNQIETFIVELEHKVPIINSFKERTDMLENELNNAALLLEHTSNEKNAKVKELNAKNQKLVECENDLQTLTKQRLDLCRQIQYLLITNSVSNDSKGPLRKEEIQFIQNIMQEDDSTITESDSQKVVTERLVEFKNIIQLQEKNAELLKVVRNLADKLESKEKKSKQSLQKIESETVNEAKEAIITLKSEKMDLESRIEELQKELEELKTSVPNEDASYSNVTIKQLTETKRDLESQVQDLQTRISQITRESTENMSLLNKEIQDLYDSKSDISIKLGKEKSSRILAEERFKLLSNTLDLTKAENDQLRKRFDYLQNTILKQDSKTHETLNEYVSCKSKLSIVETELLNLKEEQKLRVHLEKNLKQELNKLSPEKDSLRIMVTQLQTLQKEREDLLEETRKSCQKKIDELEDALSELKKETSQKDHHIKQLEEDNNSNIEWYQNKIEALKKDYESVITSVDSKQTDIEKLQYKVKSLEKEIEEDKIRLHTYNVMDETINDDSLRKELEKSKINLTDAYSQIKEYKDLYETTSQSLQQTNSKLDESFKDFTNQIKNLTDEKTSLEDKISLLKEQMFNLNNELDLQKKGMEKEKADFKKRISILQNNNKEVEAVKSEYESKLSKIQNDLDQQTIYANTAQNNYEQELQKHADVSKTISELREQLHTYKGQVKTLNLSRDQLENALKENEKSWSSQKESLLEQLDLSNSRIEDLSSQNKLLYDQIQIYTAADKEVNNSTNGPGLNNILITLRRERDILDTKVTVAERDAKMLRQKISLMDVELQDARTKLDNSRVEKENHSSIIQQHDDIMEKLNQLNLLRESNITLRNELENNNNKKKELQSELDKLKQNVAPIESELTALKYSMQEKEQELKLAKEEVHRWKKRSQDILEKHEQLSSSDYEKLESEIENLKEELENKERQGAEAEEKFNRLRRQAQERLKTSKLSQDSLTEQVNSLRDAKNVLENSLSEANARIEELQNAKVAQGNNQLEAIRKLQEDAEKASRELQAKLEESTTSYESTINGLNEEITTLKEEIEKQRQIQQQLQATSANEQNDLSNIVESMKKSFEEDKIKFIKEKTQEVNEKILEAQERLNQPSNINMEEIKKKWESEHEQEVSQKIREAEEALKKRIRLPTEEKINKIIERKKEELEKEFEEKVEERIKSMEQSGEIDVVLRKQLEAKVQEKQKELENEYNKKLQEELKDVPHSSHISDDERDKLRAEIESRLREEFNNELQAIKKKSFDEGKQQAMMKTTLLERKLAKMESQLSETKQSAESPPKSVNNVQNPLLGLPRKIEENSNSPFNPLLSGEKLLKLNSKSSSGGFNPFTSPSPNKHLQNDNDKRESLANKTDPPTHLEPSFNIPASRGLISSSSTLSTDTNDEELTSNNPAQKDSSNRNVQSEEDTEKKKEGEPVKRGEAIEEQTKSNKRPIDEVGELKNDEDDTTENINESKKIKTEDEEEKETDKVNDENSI

T1: Cex1-HA (S. cerevisiae) (UniProt Q12453)
T1 sequence: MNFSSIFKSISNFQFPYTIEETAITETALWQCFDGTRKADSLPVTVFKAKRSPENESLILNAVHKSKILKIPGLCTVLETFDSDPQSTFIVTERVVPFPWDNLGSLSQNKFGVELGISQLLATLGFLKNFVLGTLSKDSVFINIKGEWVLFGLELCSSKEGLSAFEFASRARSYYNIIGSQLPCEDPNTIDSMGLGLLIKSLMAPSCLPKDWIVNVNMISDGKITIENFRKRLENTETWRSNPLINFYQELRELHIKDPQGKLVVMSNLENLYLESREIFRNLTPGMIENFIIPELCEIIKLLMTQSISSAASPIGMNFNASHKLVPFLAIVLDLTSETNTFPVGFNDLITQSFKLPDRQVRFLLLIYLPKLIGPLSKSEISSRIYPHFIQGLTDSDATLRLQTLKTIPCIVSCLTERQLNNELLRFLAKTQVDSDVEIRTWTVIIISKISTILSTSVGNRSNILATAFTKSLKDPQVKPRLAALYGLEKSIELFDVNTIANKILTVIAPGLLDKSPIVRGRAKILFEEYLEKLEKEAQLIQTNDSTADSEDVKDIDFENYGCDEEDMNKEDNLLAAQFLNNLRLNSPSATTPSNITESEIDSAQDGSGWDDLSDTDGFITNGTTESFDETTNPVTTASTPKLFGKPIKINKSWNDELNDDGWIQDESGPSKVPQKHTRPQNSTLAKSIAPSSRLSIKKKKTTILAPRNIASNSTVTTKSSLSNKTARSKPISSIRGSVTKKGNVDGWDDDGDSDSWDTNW

B1: Sec33 (α-COP) (protein, UniProt P53622 1-1201)
chain: MKMLTKFESKSTRAKGIAFHPSRPWVLVALFSSTIQLWDYRMGTLLHRFEDHEGPVRGLDFHPTQPIFVSAGDDYTIKVWSLDTNKCLYTLTGHLDYVRTVFFHRELPWIISASDDQTIRIWNWQNRKEIACLTGHNHFVMCAQFHPTDDLIVSASLDETIRIWDISGLRKRHSAPGTSSFEEQMSAQQNLLDGSLGDCVVKFILEGHTRGVNWASFHPTLPLIVSGSDDRQVKLWRMSATKAWEVDTCRGHTNNVDSVIFHPHQNLIISVGEDKTLRVWDLDKRTPVKQFKRENDRFWLIAAHPHINLFGAAHDSGIMVFKLDRERPCSFIHQNQLFFVNAEKQIQSFNFQKRVASLPYASLKGIGQPWDAFRSISYNPSQHSVLVNEANGKFALVILPKQPVGAVEPTSVTQDTGNFATFVGRNRFVVYNKNTESVEVRSLENKVTRNIKVEETVRTIVAAGPGSVLVIHPREVILYDVQQGKKVSQLAVKNVKYVSWSLDGQYVALMSKHTITLATKKLELINSMHETIRIKSAAWDETGVLIYSTLNHIRYSLLNGDRGIIKTLEKTLYITKVQGKLVYCLNREGEIEILTIDPTEYRFKKALVNKNFPEVLRLIKDSNLVGQNIISYLQKSGYPEIALQFVQDPHIRFDLALEYGNLDVALDEAKKLNDSSTWERLIQEALAQGNASLAEMIYQTQHSFDKLSFLYLVTGDVNKLSKMQNIAQTREDFGSMLLNTFYNNSTKERSSIFAEGGSLPLAYAVAKANGDEAAASAFLEQAEVDEQDVTLPDQMDASNFVQRPVISKPLEKWPLKEAELSYFEKAVLGQIDDLTIDDETPAVNTTQEQEEPLGEENFNDEDIGEDEGAWDLGDEDLDVGEELPEEVEQGEITSPAQEVETAIWIKNSKLPAVLVAAGAFDAAVQALSKQVGVVKLEPLKKYFTNIYEGCRTYIPSTPCELPAQLGYVRAYDDTVSEDQILPYVPGLDVVNEKMNEGYKNFKLNKPDIAIECFREAIYRITLLMVDDAEDEKLAHKILETAREYILGLSIELERRSLKEGNTVRMLELAAYFTKAKLSPIHRTNALQVAMSQHFKHKNFLQASYFAGEFLKIISSGPRAEQARKIKNKADSMASDAIPIDFDPYAKFDICAATYKPIYEDTPSVSDPLTGSKYVITEKDKIDRIAMISKIGAPASGLRIRV
B2: Sec21 (γ-COP) (protein, UniProt P32074 1-935)
chain: MSAHTYKKFENSTSGDLPDKMTIYQDCMNTFNESPVNSKRCRLLISRLLRLLAQGETFPQNEATALFFSISKLFQHQNDPLRQAVYLAIKELSGISEDVLMATSSIMKDVQNGSDLIKPDAIRSLTYVLDESTAFSAERLLKSAVVSRHPSISSAALCTSYHLLPISEVTIRRFTNETQEAVLDLKQFPNQHGNSEYYPNSTYISQYHALGLLYQLKKTDKMALLKLVRHFSENNSMKNQLAKVELVKIVNDLIYRDPQLFSQFRPLLSDWLSNKFESVQLETAKLITSFATRNSRLVAPELYAAAISALQSLLTVPRVSSRFAALRILNRISMVSPEKIVVCNPELESLINDSNRNISTYAITTLLKTGTSKNISSLISTITNFIHDVSDDFKIIIIDAVRTLSLNFPQEWKSILNFLIDVLKNSEGGFKFKNSIVEALIDIVSFVPQSKELALENLCDFIEDCEFNEILVRILHLLGKEGPSAPNPSLYVRHIYNRVVLENSIIRSAAVVALSKFALTKNDPTLYESIISLLKRIANDKDDEVRDRATIALEFIDSARNKDDVIAQNLIESKYFYDIPSLESKLSSYISSNTDSFATAFDVNQVRKFTEDEMKAINLKRKQEQIFNQKSETTLDTTPEAESVPEKRADANSFAGPNLDDHQEDLLATKYADELLSIEQIKPFGQLVNSSRAISLTEPEAEFVVRGVKHLFKDNVVLQFNITNTLTDIALDNVSVVCTPEISDEAELEELFTLQVDRLLPSEEAACYVAFKKLDEIVMEGFLNNLTFTTKEINPDTNEPFDGDEGFQDEYEIDSIFLNAGDYVKSSFTGNFSATFDELPCEEVAVFNIQEDLSIQEVVDKIILNSSCLPVESTQFAPSDSNSHTLKLFGKSALTGSKVALQIKMIKSSKGLALKVHGKGEDSLLCSDLVNGLMQ
B3: Sec26 (β-COP) (protein, UniProt P41810 1-973)
chain: MTSLSSQPAYTLVFDPSPSMETYSSTDFQKALEKGSDEQKIDTMKSILVTMLEGNPMPELLMHIIRFVMPSKNKELKKLLYFYWEIVPKLAEDGKLRHEMILVCNAIQHDLQHPNEYIRGNTLRFLTKLREAELLEQMVPSVLACLEYRHAYVRKYAILAVFSIFKVSEHLLPDAKEIINSFIVAETDPICKRNAFIGLAELDRENALHYLENNIADIENLDPLLQAVFVQFIRQDANRTPALKAQYIELLMELLSTTTSDEVIFETALALTVLSANPNVLVPAVNKLIDLAVKVSDNNIKLIVLDRIQDINANNVGALEELTLDILRVLNAEDLDVRSKALDISMDLATSRNAEDVVQLLKKELQTTVNNPDQDKAMQYRQLLIKTIRTVAVNFVEMAASVVSLLLDFIGDLNSVAASGIIAFIKEVIEKYPQLRANILENMVQTLDKVRSAKAYRGALWIMGEYAEGESEIQHCWKHIRNSVGEVPILQSEIKKLTQNQEHTEENEVDATAKPTGPVILPDGTYATESAFDVKTSQKSVTDEERDSRPPIRRFVLSGDFYTAAILANTIIKLVLKFENVSKNKTVINALKAEALLILVSIVRVGQSSLVEKKIDEDSLERVMTSISILLDEVNPEEKKEEVKLLEVAFLDTTKSSFKRQIEIAKKNKHKRALKDSCKNIEPIDTPISFRQFAGVDSTNVQKDSIEEDLQLAMKGDAIHATSSSSISKLKKIVPLCGFSDPVYAEACITNNQFDVVLDVLLVNQTKETLKNLHVQFATLGDLKIIDTPQKTNVIPHGFHKFTVTVKVSSADTGVIFGNIIYDGAHGEDARYVILNDVHVDIMDYIKPATADDEHFRTMWNAFEWENKISVKSQLPTLHAYLRELVKGTNMGILTPSESLGEDDCRFLSCNLYAKSSFGEDALANLCIEKDSKTNDVIGYVRIRSKGQGLALSLGDRVALIAKKTNKLALTHV
B4: Sec27 (β′-COP), endogenous (protein, UniProt P41811 1-889)
chain: MKLDIKKTFSNRSDRVKGIDFHPTEPWVLTTLYSGRVELWNYETQVEVRSIQVTETPVRAGKFIARKNWIIVGSDDFRIRVFNYNTGEKVVDFEAHPDYIRSIAVHPTKPYVLSGSDDLTVKLWNWENNWALEQTFEGHEHFVMCVAFNPKDPSTFASGCLDRTVKVWSLGQSTPNFTLTTGQERGVNYVDYYPLPDKPYMITASDDLTIKIWDYQTKSCVATLEGHMSNVSFAVFHPTLPIIISGSEDGTLKIWNSSTYKVEKTLNVGLERSWCIATHPTGRKNYIASGFDNGFTVLSLGNDEPTLSLDPVGKLVWSGGKNAAASDIFTAVIRGNEEVEQDEPLSLQTKELGSVDVFPQSLAHSPNGRFVTVVGDGEYVIYTALAWRNKAFGKCQDFVWGPDSNSYALIDETGQIKYYKNFKEVTSWSVPMHSAIDRLFSGALLGVKSDGFVYFFDWDNGTLVRRIDVNAKDVIWSDNGELVMIVNTNSNGDEASGYTLLFNKDAYLEAANNGNIDDSEGVDEAFDVLYELSESITSGKWVGDVFIFTTATNRLNYFVGGKTYNLAHYTKEMYLLGYLARDNKVYLADREVHVYGYEISLEVLEFQTLTLRGEIEEAIENVLPNVEGKDSLTKIARFLEGQEYYEEALNISPDQDQKFELALKVGQLTLARDLLTDESAEMKWRALGDASLQRFNFKLAVEAFTNAHDLESLFLLHSSFNNKEGLVTLAKDAERAGKFNLAFNAYWIAGDIQGAKDLLIKSQRFSEAAFLGSTYGLGDDAVNDIVTKWKENLILNGKNTVSERVCGAEGLPGSSSSGDAQPLIDLDSTPAPEQADENKEAEVEDSEFKESNSEAVEAEKKEEEAPQQQQSEQQPEQGEAVPEPVEEES
B5: Sec28 (ε-COP) (protein, UniProt P40509 1-296)
chain: MDYFNIKQNYYTGNFVQCLQEIEKFSKVTDNTLLFYKAKTLLALGQYQSQDPTSKLGKVLDLYVQFLDTKNIEELENLLKDKQNSPYELYLLATAQAILGDLDKSLETCVEGIDNDEAEGTTELLLLAIEVALLNNNVSTASTIFDNYTNAIEDTVSGDNEMILNLAESYIKFATNKETATSNFYYYEELSQTFPTWKTQLGLLNLHLQQRNIAEAQGIVELLLSDYYSVEQKENAVLYKPTFLANQITLALMQGLDTEDLTNQLVKLDHEHAFIKHHQEIDAKFDELVRKYDTSN
B6: Bat2 (protein, UniProt P47176 1-376)
chain: MTLAPLDASKVKITTTQHASKPKPNSELVFGKSFTDHMLTAEWTAEKGWGTPEIKPYQNLSLDPSAVVFHYAFELFEGMKAYRTVDNKITMFRPDMNMKRMNKSAQRICLPTFDPEELITLIGKLIQQDKCLVPEGKGYSLYIRPTLIGTTAGLGVSTPDRALLYVICCPVGPYYKTGFKAVRLEATDYATRAWPGGCGDKKLGANYAPCVLPQLQAASRGYQQNLWLFGPNNNITEVGTMNAFFVFKDSKTGKKELVTAPLDGTILEGVTRDSILNLAKERLEPSEWTISERYFTIGEVTERSKNGELLEAFGSGTAAIVSPIKEIGWKGEQINIPLLPGEQTGPLAKEVAQWINGIQYGETEHGNWSRVVTDLN
B7: Tps1 (protein, UniProt Q00764 1-495)
chain: MTTDNAKAQLTSSSGGNIIVVSNRLPVTITKNSSTGQYEYAMSSGGLVTALEGLKKTYTFKWFGWPGLEIPDDEKDQVRKDLLEKFNAVPIFLSDEIADLHYNGFSNSILWPLFHYHPGEINFDENAWLAYNEANQTFTNEIAKTMNHNDLIWVHDYHLMLVPEMLRVKIHEKQLQNVKVGWFLHTPFPSSEIYRILPVRQEILKGVLSCDLVGFHTYDYARHFLSSVQRVLNVNTLPNGVEYQGRFVNVGAFPIGIDVDKFTDGLKKESVQKRIQQLKETFKGCKIIVGVDRLDYIKGVPQKLHAMEVFLNEHPEWRGKVVLVQVAVPSRGDVEEYQYLRSVVNELVGRINGQFGTVEFVPIHFMHKSIPFEELISLYAVSDVCLVSSTRDGMNLVSYEYIACQEEKKGSLILSEFTGAAQSLNGAIIVNPWNTDDLSDAINEALTLPDVKKEVNWEKLYKYISKYTSAFWGENFVHELYSTSSSSTSSSATKN

Target: T1, Cex1-HA (S. cerevisiae)
Experiment: affinity purification with mass spectrometry; Cex1-HA as bait on magnetic anti-HA MicroBeads, MYC-beads as control; lysate in 0.33% NP40, 50 mM Tris-HCl pH8, 50 mM NaCl, 1 mM PMSF; 30 min on ice; three independent IPs; nano-LC-MS/MS

Molecule	binding
Mlp1 (from UniProt Q02455 1-1875)	binds
Epo1	binds
B1	binds
B2	binds
B3	binds
B4	binds
B5	binds
B6	binds
B7	binds
